Source: paper PMC5723018
These are yes or no findings as the source states them, for the method shown. In cells and extracts the contact can be indirect. Some results given as binding are weak or reduced against the parent protein; the word gives no strength.

By UniProt entry, the sequences of proteins in these tests, tags left out.
UniProt Q04206: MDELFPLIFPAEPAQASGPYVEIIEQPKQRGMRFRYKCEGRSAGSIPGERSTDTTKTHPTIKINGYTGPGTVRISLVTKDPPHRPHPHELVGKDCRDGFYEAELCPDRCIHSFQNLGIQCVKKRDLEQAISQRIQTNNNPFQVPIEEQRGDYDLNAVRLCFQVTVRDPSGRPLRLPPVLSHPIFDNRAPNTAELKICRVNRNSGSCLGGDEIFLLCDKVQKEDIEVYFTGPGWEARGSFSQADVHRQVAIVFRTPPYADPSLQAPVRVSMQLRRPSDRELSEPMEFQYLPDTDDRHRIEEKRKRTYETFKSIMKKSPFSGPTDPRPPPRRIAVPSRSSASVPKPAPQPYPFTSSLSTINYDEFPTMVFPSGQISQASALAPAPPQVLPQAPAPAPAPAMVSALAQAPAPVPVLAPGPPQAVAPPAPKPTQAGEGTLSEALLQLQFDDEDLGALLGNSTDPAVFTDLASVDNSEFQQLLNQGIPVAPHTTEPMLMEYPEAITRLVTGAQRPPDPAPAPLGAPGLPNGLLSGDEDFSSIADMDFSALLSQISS

T1: FK506 binding protein 11 (human (endogenous in EA.hy926)) (UniProt Q9NYL4)
T1 sequence: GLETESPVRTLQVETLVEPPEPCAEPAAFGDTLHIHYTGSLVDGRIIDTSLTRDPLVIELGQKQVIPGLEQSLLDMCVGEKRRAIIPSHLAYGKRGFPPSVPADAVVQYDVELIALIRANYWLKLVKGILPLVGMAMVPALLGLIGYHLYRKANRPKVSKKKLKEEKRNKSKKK

B1: FK506 binding protein 11 (protein, UniProt Q9NYL4 28-201)
chain: GLETESPVRTLQVETLVEPPEPCAEPAAFGDTLHIHYTGSLVDGRIIDTSLTRDPLVIELGQKQVIPGLEQSLLDMCVGEKRRAIIPSHLAYGKRGFPPSVPADAVVQYDVELIALIRANYWLKLVKGILPLVGMAMVPALLGLIGYHLYRKANRPKVSKKKLKEEKRNKSKKK

What was measured:
[1] = molecular target: T1, FK506 binding protein 11 (human (endogenous in EA.hy926)); experiment: co-IP; endogenous proteins in whole cell lysates of EA.hy926 cells, control or treated with 1.0 x 10^-6 mol/L Ang II; 3 ug specific antibody, 2 h at 4°C, protein A/G agarose beads, washed with PBS; IP of FKBP11 and immunoblot of p-p65, and vice versa
[2] = molecular target: NF-kB p65 subunit, phosphorylated (human (endogenous in EA.hy926)) (UniProt Q04206); experiment: as above

Molecule	binding [1]	binding [2]
NF-kB p65 subunit, phosphorylated (from UniProt Q04206 1-551)	binds	–
B1	–	binds
